Here are results for one substance from paper PMC7071683.

Protein sequences, listed by entry. Tags and fused reporters are not part of them. Lines headed by an entry give the natural chain unless they say otherwise; changes in a name come on top. Residues count along the entry.
UniProt O43915, residues 89-205: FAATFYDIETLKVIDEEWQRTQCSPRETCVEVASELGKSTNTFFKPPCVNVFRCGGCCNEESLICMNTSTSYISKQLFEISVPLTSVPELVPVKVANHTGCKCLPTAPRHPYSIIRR
UniProt P35916, residues 25-775: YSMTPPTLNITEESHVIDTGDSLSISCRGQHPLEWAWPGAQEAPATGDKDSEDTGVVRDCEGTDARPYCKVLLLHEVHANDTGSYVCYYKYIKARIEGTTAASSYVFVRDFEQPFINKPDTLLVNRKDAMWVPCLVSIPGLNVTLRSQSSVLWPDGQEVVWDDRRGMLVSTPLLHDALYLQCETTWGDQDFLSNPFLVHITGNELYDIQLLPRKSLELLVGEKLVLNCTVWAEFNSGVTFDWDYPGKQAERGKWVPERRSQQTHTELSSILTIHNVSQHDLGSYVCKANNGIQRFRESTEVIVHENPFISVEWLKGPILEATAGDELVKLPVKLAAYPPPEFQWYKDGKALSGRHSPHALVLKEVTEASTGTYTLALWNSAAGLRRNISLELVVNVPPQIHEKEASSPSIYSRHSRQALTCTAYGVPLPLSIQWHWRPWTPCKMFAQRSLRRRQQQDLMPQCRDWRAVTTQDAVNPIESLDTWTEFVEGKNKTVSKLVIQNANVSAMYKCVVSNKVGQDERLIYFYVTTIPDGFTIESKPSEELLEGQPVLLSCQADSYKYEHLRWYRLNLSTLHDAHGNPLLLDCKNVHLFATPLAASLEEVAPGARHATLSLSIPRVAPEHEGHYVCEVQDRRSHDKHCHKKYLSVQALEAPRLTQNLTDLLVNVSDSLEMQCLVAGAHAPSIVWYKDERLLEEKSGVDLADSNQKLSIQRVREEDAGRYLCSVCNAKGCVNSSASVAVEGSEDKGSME

In the test the target is Commercially available human VEGF-D (human) (UniProt O43915). The test is described as follows: ELISA; histidine-tagged ligand (2.5 μg/mL in PBS, overnight at 4 °C) captured on nickel coated high sensitivity multiwell plates; receptor-Fcγ added 2 h at 37 °C in 0.05% skim milk, 0.05% Tween 20 in PBS; detected with HRP-conjugated goat anti-human IgG antibody; both purified. In general terms: ELISA stands for enzyme-linked immunosorbent assay.

Results are given in words; binding and its absence hold for the method and conditions named. Some results given as binding are weak or reduced against the parent protein; the word gives no strength.

For the substance “Recombinant human VEGF receptor 3/Fcγ chimera (from UniProt P35916 25-775) (Fc fusion)”, the binding result is “binds”.
